The list shows a part of the results.
Assays:
Experiment in all cases: log2 fold change, soluble protein after heating vs DMSO (PISA); higher = thermal stabilisation; K562 cells, 10 uM, 30 min; active = over 0.2 and 3.5 SD of the protein, either way, in both replicates (recomputed)
saracatinib = compound: CN1CCN(CCOc2cc(OC3CCOCC3)c3c(Nc4c(Cl)ccc5c4OCO5)ncnc3c2)CC1 [saracatinib]
Outline: (§1)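 For each measurement, 10 μM compound was applied for 30 min to K562 cells at 2×10^6 cells/mL. Aliquots were heated for 3 min across 48°C-58°C, pooled, and extracted in PBS with 0.5% NP-40 at 4°C; the supernatant after 21,000xg for 90 min was soluble protein. This was quantified by TMTpro 16plex LC-MS/MS with channel sums equalised, and thermal stability was reported relative to control samples from duplicates, on a log2 fold-change scale.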

Chains of the proteins cited; added tags and fusions are not shown. Lines headed by an entry give the natural chain unless they say otherwise; changes in a name come on top.
UniProt Q9BV81: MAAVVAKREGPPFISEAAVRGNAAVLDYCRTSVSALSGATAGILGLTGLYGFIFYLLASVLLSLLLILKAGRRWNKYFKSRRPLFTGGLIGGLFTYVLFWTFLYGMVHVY
UniProt P68104, whole entry, looked up: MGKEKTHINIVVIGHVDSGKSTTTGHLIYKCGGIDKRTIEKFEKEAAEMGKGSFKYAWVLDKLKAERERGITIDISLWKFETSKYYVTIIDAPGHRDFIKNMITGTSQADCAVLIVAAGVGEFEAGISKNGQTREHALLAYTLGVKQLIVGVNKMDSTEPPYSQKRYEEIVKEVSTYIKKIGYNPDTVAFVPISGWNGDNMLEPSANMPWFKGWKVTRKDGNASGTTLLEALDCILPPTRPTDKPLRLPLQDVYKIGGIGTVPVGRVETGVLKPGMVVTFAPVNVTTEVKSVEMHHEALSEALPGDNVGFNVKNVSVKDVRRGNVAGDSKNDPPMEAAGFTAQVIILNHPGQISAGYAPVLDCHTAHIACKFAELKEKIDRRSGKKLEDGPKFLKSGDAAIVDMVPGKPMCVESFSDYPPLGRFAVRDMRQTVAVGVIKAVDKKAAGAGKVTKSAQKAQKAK
UniProt P60228, whole entry, looked up: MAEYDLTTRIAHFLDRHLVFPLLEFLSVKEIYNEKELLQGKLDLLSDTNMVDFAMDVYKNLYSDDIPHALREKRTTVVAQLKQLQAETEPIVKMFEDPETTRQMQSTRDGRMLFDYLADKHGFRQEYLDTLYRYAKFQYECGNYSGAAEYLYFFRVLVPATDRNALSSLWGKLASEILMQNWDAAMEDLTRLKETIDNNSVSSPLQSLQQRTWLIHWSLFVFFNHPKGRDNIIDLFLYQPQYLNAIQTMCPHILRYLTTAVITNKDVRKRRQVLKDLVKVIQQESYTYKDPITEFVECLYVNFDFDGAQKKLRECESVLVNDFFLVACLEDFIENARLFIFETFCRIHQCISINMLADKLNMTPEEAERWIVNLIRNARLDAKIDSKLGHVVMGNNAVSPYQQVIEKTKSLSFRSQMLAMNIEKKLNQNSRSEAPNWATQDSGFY
UniProt Q14240, whole entry, looked up: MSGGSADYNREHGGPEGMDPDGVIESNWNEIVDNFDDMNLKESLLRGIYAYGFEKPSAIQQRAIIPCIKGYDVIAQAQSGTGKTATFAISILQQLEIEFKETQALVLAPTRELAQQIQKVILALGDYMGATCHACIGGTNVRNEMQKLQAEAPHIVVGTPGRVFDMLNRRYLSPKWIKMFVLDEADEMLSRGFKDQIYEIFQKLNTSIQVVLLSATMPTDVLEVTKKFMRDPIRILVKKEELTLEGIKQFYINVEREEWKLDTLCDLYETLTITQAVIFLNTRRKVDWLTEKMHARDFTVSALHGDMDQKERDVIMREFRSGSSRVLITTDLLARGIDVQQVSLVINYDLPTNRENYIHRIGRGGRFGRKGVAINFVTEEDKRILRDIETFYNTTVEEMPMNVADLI
UniProt P63241: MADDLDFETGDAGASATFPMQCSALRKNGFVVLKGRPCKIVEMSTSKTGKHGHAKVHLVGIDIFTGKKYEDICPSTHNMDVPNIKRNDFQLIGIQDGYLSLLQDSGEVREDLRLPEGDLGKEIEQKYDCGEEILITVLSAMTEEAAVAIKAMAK
UniProt O75821, whole entry, looked up: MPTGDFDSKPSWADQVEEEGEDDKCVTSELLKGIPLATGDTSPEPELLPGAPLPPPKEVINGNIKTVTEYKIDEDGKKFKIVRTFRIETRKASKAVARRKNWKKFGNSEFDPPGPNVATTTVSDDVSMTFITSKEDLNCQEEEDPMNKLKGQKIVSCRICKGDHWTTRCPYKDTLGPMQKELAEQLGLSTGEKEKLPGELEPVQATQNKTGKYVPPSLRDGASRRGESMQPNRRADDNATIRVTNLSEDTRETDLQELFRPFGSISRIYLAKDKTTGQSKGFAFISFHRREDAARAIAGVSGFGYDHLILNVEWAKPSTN
UniProt P20042, whole entry, looked up: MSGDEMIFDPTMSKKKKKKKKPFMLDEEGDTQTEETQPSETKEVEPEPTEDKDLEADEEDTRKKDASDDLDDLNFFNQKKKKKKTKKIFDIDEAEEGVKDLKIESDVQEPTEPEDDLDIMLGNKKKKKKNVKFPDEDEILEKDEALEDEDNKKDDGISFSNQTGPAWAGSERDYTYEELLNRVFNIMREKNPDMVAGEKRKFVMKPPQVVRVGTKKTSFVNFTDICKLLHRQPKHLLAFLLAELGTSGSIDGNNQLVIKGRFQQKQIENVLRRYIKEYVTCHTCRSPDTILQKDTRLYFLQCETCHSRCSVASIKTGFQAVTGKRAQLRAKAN
UniProt O95834: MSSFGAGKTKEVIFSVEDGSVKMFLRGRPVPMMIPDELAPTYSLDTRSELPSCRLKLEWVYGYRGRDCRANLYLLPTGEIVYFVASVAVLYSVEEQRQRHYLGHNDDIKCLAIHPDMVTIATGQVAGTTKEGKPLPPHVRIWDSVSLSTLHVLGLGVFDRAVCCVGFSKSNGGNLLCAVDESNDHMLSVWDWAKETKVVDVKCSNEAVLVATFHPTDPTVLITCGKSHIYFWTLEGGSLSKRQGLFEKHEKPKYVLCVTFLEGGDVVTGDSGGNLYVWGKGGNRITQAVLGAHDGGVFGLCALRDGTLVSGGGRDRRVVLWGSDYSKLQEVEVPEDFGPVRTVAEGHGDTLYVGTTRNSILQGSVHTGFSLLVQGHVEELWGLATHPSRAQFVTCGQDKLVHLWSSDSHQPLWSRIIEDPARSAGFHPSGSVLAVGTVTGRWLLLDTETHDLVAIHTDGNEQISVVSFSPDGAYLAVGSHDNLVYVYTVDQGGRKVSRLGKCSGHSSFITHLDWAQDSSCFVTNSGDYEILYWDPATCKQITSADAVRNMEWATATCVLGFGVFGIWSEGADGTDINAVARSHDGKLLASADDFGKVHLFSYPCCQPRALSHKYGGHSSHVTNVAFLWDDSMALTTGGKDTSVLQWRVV
UniProt P54852: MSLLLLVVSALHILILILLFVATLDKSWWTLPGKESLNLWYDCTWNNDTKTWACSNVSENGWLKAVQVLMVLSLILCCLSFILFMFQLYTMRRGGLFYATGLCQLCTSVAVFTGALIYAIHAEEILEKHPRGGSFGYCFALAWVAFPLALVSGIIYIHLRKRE
UniProt Q9P2K8: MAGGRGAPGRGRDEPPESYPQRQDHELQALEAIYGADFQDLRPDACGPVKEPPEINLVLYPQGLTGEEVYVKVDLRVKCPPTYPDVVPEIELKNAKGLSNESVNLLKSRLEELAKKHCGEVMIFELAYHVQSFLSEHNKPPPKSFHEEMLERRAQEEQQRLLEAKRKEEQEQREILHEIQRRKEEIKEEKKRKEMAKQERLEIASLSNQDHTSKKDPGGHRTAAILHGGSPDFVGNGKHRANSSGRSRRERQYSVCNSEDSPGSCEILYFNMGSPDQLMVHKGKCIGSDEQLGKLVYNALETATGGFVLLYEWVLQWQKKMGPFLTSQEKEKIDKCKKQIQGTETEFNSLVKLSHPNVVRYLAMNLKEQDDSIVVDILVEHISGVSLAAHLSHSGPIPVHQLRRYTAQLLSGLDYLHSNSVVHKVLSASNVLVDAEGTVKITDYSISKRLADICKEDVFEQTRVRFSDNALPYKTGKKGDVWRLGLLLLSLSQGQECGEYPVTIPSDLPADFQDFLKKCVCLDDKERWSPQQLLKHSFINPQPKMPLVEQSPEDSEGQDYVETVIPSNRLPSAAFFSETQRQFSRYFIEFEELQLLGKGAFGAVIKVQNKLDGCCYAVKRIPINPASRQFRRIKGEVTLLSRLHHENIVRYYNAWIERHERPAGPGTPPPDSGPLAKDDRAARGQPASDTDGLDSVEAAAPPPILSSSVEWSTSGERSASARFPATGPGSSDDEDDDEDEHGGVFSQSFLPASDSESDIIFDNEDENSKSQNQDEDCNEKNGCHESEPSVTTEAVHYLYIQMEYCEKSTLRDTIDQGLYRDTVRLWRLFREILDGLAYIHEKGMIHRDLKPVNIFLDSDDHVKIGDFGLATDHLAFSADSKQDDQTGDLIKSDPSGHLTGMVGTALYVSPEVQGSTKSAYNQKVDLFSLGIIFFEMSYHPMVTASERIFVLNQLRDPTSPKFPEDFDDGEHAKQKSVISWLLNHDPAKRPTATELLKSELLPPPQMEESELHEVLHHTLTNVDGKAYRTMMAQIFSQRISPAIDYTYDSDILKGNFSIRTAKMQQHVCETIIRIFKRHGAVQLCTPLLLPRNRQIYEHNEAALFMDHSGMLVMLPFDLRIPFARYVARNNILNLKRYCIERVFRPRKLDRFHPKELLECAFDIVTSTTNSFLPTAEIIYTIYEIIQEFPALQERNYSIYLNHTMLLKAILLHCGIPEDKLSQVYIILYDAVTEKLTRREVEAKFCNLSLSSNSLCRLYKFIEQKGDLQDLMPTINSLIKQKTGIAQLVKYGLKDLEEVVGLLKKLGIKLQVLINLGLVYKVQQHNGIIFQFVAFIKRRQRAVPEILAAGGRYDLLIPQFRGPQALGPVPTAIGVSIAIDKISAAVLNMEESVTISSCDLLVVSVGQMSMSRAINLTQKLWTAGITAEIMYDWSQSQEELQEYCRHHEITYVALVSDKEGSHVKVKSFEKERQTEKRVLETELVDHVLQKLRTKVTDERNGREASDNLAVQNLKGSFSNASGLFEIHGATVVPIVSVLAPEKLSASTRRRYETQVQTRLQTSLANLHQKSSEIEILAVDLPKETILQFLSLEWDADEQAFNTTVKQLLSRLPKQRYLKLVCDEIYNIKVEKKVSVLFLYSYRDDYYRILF
UniProt Q13541: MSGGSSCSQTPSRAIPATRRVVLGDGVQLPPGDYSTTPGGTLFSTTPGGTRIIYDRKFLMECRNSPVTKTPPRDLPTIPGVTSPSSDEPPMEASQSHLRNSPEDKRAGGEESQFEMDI
UniProt Q5VTE0, whole entry, looked up: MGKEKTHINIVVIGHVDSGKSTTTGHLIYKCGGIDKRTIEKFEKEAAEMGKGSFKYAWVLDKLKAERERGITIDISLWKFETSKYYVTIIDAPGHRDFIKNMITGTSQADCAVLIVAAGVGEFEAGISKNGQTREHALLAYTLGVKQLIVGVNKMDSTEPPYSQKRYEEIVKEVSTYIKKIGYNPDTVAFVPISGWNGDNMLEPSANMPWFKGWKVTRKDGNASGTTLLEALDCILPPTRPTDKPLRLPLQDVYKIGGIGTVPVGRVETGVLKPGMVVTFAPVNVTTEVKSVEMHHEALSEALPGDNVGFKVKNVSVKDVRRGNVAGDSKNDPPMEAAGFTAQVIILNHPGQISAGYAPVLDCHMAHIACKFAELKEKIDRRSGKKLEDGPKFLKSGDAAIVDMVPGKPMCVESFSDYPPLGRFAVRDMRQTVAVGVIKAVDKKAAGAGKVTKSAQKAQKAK
UniProt O75356: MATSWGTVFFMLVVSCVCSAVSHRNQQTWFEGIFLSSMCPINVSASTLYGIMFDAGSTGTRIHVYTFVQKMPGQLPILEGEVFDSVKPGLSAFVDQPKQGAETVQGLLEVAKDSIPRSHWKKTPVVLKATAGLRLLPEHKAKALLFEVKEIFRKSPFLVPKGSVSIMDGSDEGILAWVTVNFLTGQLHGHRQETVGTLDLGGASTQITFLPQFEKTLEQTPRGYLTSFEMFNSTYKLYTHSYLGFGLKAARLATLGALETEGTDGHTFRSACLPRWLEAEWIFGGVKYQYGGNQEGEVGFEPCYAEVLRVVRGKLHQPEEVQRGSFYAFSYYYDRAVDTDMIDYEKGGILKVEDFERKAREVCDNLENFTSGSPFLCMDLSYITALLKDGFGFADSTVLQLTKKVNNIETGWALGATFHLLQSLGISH
UniProt Q5J8M3, whole entry, looked up: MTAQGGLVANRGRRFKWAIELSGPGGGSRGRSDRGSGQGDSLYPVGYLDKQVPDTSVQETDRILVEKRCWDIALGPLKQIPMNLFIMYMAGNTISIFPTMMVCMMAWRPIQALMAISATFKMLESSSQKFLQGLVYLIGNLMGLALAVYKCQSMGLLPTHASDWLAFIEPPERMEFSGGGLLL
UniProt Q9H9T3: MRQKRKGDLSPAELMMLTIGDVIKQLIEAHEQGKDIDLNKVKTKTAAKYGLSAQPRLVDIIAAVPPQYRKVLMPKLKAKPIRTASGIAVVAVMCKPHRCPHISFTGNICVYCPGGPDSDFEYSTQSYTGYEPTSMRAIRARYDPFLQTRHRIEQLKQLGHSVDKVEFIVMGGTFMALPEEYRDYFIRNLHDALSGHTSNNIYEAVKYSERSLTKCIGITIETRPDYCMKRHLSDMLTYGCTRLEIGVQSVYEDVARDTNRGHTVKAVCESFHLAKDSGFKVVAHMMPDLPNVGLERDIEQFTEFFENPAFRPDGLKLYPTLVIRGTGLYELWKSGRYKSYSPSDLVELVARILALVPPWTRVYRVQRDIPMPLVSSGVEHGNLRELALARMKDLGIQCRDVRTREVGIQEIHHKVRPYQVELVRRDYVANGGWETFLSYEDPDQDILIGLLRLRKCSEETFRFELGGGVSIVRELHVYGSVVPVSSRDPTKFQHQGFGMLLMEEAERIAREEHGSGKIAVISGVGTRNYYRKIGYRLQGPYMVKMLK

sotrastaurin = compound: CN1CCN(c2nc(C3=C(c4c[nH]c5ccccc45)C(=O)NC3=O)c3ccccc3n2)CC1 [sotrastaurin]
Outline: as §1

alvocidib = compound: CN1CC[C@H](c2c(O)cc(O)c3c(=O)cc(-c4ccccc4Cl)oc23)[C@H](O)C1 [alvocidib]
Outline: as §1

Tubastatin A = compound: CN1CCc2c(c3ccccc3n2Cc2ccc(C(=O)NO)cc2)C1 [Tubastatin A]
Outline: as §1

[1] = compound: CNC(=O)C1=CC=CC=C1NC2=NC(=NC=C2Cl)NC3=C(C=C(C=C3)N4CCOCC4)OC
Outline: as §1

defactinib = compound: CNC(=O)c1ccc(Nc2ncc(C(F)(F)F)c(NCc3nccnc3N(C)S(C)(=O)=O)n2)cc1 [defactinib]
Outline: as §1

rucaparib = compound: CNCc1ccc(-c2[nH]c3cc(F)cc4c3c2CCNC4=O)cc1 [rucaparib]
Outline: as §1

[2] = compound: CNc1nc(-c2ccc3c(N)n[nH]c3c2)cc(N2C[C@@H](C(=O)NC3CCCCC3)CC[C@H]2C)n1
Outline: as §1

encorafenib = compound: COC(=O)N[C@@H](C)CNc1nccc(-c2cn(C(C)C)nc2-c2cc(Cl)cc(NS(C)(=O)=O)c2F)n1 [encorafenib]
Outline: as §1

[3] = compound: COC(=O)[C@H](CCSC)NC(=O)C1=C(C=C(C=C1)NC[C@H](CS)N)C2=CC=CC=C2
Outline: as §1

[4] = compound: COC1=CC=C(C=C1)CN2C=CC3=C2C=C(C=C3)C(=O)NO
Outline: as §1

filanesib = compound: CON(C)C(=O)N1N=C(c2cc(F)ccc2F)S[C@@]1(CCCN)c1ccccc1 [filanesib]
Outline: as §1

zotarolimus = compound: CO[C@H]1C[C@@H]2CC[C@@H](C)[C@@](O)(O2)C(=O)C(=O)N2CCCC[C@H]2C(=O)O[C@H]([C@H](C)C[C@@H]2CC[C@H](n3cnnn3)[C@H](OC)C2)CC(=O)[C@H](C)/C=C(\C)[C@@H](O)[C@@H](OC)C(=O)[C@H](C)C[C@H](C)/C=C/C=C/C=C/1C [zotarolimus]
Outline: as §1

idasanutlin = compound: COc1cc(C(=O)O)ccc1NC(=O)[C@@H]1N[C@@H](CC(C)(C)C)[C@](C#N)(c2ccc(Cl)cc2F)[C@H]1c1cccc(Cl)c1F [idasanutlin]
Outline: as §1

alisertib = compound: COc1cc(Nc2ncc3c(n2)-c2ccc(Cl)cc2C(c2c(F)cccc2OC)=NC3)ccc1C(=O)O [alisertib]
Outline: as §1

[5] = compound: COc1cc2nc(-c3cc(F)ccc3O)nc(N[C@@H]3CNC[C@H]3C(C)(C)O)c2cc1OC
Outline: as §1

gefitinib = compound: COc1cc2ncnc(Nc3ccc(F)c(Cl)c3)c2cc1OCCCN1CCOCC1 [gefitinib]
Outline: as §1

[6] = compound: COc1cccc2cc(-c3nc([C@H]4CC[C@H](C(=O)O)CC4)n4ncnc(N)c34)[nH]c12
Outline: as §1

lapatinib = compound: CS(=O)(=O)CCNCc1ccc(-c2ccc3ncnc(Nc4ccc(OCc5cccc(F)c5)c(Cl)c4)c3c2)o1 [lapatinib]
Outline: as §1

pictilisib = compound: CS(=O)(=O)N1CCN(Cc2cc3nc(-c4cccc5[nH]ncc45)nc(N4CCOCC4)c3s2)CC1 [pictilisib]
Outline: as §1

Measured: log2 fold change

EMC6 (UniProt Q9BV81)
inactive: saracatinib 0.1 | sotrastaurin -0.014 | alvocidib -0.032 | Tubastatin A 0.017 | [1] 0.04 | defactinib 0.007 | rucaparib -0.058 | [2] -0.02 | encorafenib 0.007 | [3] -0.181 | [4] 0.146 | filanesib 0.006 | zotarolimus 0.006 | idasanutlin -0.053 | alisertib -0.034 | [5] -0.052 | gefitinib -0.007 | [6] 0.041 | lapatinib -0.021 | pictilisib 0.093

EEF1A1 (UniProt P68104)
active: alvocidib -0.885
inactive: saracatinib 0.093 | sotrastaurin -0.082 | Tubastatin A -0.096 | [1] 0.007 | defactinib -0.079 | rucaparib 0.146 | [2] 0.102 | encorafenib -0.009 | [3] -0.059 | [4] 0.081 | filanesib -0.119 | zotarolimus 0.182 | idasanutlin -0.086 | alisertib -0.347 | [5] -0.216 | gefitinib -0.029 | [6] -0.034 | lapatinib 0.1

EIF3E (UniProt P60228)
inactive: saracatinib -0.119 | sotrastaurin -0.272 | alvocidib 0.034 | Tubastatin A 0.13 | [1] 0.137 | defactinib -0.03 | rucaparib 0.315 | [2] 0.127 | encorafenib 0.203 | [3] -0.1 | [4] 0.038 | filanesib 0.099 | zotarolimus 0.055 | idasanutlin 0.071 | alisertib -0.06 | [5] 0.035 | gefitinib 0.054 | [6] -0.217 | lapatinib 0.003 | pictilisib -0.122

EIF4A2 isoform 2 (UniProt Q14240)
inactive: saracatinib -0.007 | sotrastaurin -0.021 | alvocidib -0.099 | Tubastatin A 0.002 | [1] -0.006 | defactinib -0.083 | rucaparib -0.009 | [2] -0.004 | encorafenib 0.063 | [3] -0.015 | [4] -0.025 | filanesib -0.053 | zotarolimus 0 | idasanutlin -0.087 | alisertib -0.026 | [5] -0.011 | gefitinib 0.015 | [6] -0.002 | lapatinib -0.008 | pictilisib -0.047

EIF5A isoform 2 (UniProt P63241)
inactive: saracatinib 0.02 | sotrastaurin -0.1 | alvocidib -0.109 | Tubastatin A 0.025 | [1] 0 | defactinib -0.123 | rucaparib -0.022 | [2] 0.063 | encorafenib 0.088 | [3] -0.06 | [4] 0.082 | filanesib -0.12 | zotarolimus 0.083 | idasanutlin -0.03 | alisertib -0.018 | [5] 0.002 | gefitinib 0.016 | [6] -0.034 | lapatinib 0 | pictilisib 0.086

EIF3G (UniProt O75821)
inactive: saracatinib -0.068 | sotrastaurin -0.08 | alvocidib -0.026 | Tubastatin A -0.02 | [1] -0.043 | defactinib -0.034 | rucaparib 0.071 | [2] 0.032 | encorafenib 0.039 | [3] -0.017 | [4] -0.035 | filanesib 0.059 | zotarolimus 0.02 | idasanutlin -0.05 | alisertib -0.04 | [5] -0.112 | gefitinib -0.027 | [6] -0.041 | lapatinib -0.037 | pictilisib -0.035

EIF2S2 (UniProt P20042)
inactive: saracatinib -0.019 | sotrastaurin 0.012 | alvocidib 0.092 | Tubastatin A -0.027 | [1] -0.047 | defactinib 0.113 | rucaparib 0.152 | [2] 0.014 | encorafenib 0.053 | [3] 0.035 | [4] -0.027 | filanesib 0.15 | zotarolimus -0.006 | idasanutlin 0.073 | alisertib -0.064 | [5] 0.04 | gefitinib -0.007 | [6] -0.103 | lapatinib -0.008 | pictilisib -0.231

EML2 isoform 3 (UniProt O95834)
inactive: saracatinib 0.02 | sotrastaurin 0.029 | alvocidib -0.078 | Tubastatin A 0.005 | [1] -0.035 | defactinib -0.033 | rucaparib -0.041 | [2] -0.027 | encorafenib -0.028 | [3] 0.004 | [4] -0.039 | filanesib -0.127 | zotarolimus 0.014 | idasanutlin -0.077 | alisertib -0.018 | [5] 0.001 | gefitinib -0.015 | [6] 0.04 | lapatinib -0.013 | pictilisib 0.06

EMP3 (UniProt P54852)
inactive: saracatinib 0.082 | sotrastaurin -0.011 | alvocidib -0.101 | Tubastatin A -0.036 | [1] 0.002 | defactinib -0.024 | rucaparib -0.1 | [2] 0.057 | encorafenib 0.1 | [3] 0.03 | [4] -0.162 | filanesib 0.041 | zotarolimus 0.062 | idasanutlin 0.034 | alisertib 0.117 | [5] -0.032 | gefitinib -0.035 | [6] 0.209 | lapatinib -0.001

ELP4 (UniProt Q96EB1)
inactive: saracatinib 0.113 | sotrastaurin 0.041 | alvocidib -0.012 | Tubastatin A -0.033 | [1] -0.004 | defactinib 0.014 | rucaparib -0.071 | [2] -0.057 | encorafenib -0.1 | [3] 0.035 | [4] -0.026 | filanesib 0.046 | zotarolimus -0.088 | idasanutlin -0.017 | alisertib -0.036 | [5] -0.045 | gefitinib -0.014 | [6] 0.002 | lapatinib -0.001 | pictilisib -0.02

EIF2AK4 (UniProt Q9P2K8)
inactive: saracatinib -0.045 | sotrastaurin -0.104 | alvocidib -0.068 | Tubastatin A -0.056 | [1] -0.218 | defactinib -0.087 | rucaparib 0.125 | [2] -0.002 | encorafenib 0.096 | [3] -0.036 | [4] -0.105 | filanesib 0.043 | zotarolimus -0.049 | idasanutlin 0.218 | alisertib 0.112 | [5] -0.015 | gefitinib 0.005 | [6] 0.024 | lapatinib 0.015 | pictilisib 0.04

Three neighbouring entries out of the list so far:
EML2 isoform 3 (UniProt O95834)
inactive: saracatinib 0.02 | sotrastaurin 0.029 | alvocidib -0.078 | Tubastatin A 0.005 | [1] -0.035 | defactinib -0.033 | rucaparib -0.041 | [2] -0.027 | encorafenib -0.028 | [3] 0.004 | [4] -0.039 | filanesib -0.127 | zotarolimus 0.014 | idasanutlin -0.077 | alisertib -0.018 | [5] 0.001 | gefitinib -0.015 | [6] 0.04 | lapatinib -0.013 | pictilisib 0.06

EMP3 (UniProt P54852)
inactive: saracatinib 0.082 | sotrastaurin -0.011 | alvocidib -0.101 | Tubastatin A -0.036 | [1] 0.002 | defactinib -0.024 | rucaparib -0.1 | [2] 0.057 | encorafenib 0.1 | [3] 0.03 | [4] -0.162 | filanesib 0.041 | zotarolimus 0.062 | idasanutlin 0.034 | alisertib 0.117 | [5] -0.032 | gefitinib -0.035 | [6] 0.209 | lapatinib -0.001

ELP4 (UniProt Q96EB1)
inactive: saracatinib 0.113 | sotrastaurin 0.041 | alvocidib -0.012 | Tubastatin A -0.033 | [1] -0.004 | defactinib 0.014 | rucaparib -0.071 | [2] -0.057 | encorafenib -0.1 | [3] 0.035 | [4] -0.026 | filanesib 0.046 | zotarolimus -0.088 | idasanutlin -0.017 | alisertib -0.036 | [5] -0.045 | gefitinib -0.014 | [6] 0.002 | lapatinib -0.001 | pictilisib -0.02

Additional entries:

EIF4EBP1 (UniProt Q13541)
inactive: saracatinib 0.002 | sotrastaurin 0.101 | alvocidib -0.081 | Tubastatin A 0.114 | [1] -0.065 | defactinib 0.008 | rucaparib 0.014 | [2] -0.017 | encorafenib -0.057 | [3] -0.03 | [4] -0.062 | filanesib 0.053 | zotarolimus -0.047 | idasanutlin 0.012 | alisertib -0.105 | [5] -0.048 | gefitinib 0.006 | [6] 0.119 | lapatinib -0.192 | pictilisib -0.085

EEF1A1P5 (UniProt Q5VTE0)
inactive: saracatinib 0.009 | sotrastaurin 0.032 | alvocidib 0.001 | Tubastatin A -0.031 | [1] -0.058 | defactinib -0.005 | rucaparib -0.077 | [2] 0 | encorafenib 0.005 | [3] 0.031 | [4] -0.005 | filanesib -0.041 | zotarolimus -0.017 | idasanutlin -0.025 | alisertib 0.013 | [5] -0.003 | gefitinib -0.005 | [6] 0.097 | lapatinib -0.036 | pictilisib -0.018

ENTPD5 (UniProt O75356)
inactive: saracatinib -0.005 | sotrastaurin 0.032 | alvocidib -0.287 | Tubastatin A -0.082 | [1] 0.015 | defactinib -0.046 | rucaparib -0.038 | [2] 0.043 | encorafenib 0.043 | [3] 0.019 | [4] -0.081 | filanesib 0.039 | zotarolimus 0.197 | idasanutlin -0.02 | alisertib -0.022 | [5] 0.009 | gefitinib 0.078 | [6] -0.063 | lapatinib 0.033

EMC4 (UniProt Q5J8M3)
inactive: saracatinib 0.083 | sotrastaurin 0.035 | alvocidib -0.031 | Tubastatin A 0.005 | [1] 0.018 | defactinib -0.1 | rucaparib -0.044 | [2] -0.03 | encorafenib 0.019 | [3] -0.002 | [4] -0.096 | filanesib 0.03 | zotarolimus 0.039 | idasanutlin -0.044 | alisertib -0.011 | [5] 0.011 | gefitinib 0.036 | [6] 0.069 | lapatinib 0.006 | pictilisib 0.026

ELP3 (UniProt Q9H9T3)
inactive: saracatinib 0.037 | sotrastaurin 0.005 | alvocidib -0.003 | Tubastatin A -0.043 | [1] -0.006 | defactinib -0.035 | rucaparib -0.006 | [2] 0.03 | encorafenib 0.029 | [3] -0.015 | [4] -0.102 | filanesib -0.128 | zotarolimus 0.018 | idasanutlin -0.04 | alisertib -0.087 | [5] 0.044 | gefitinib 0.05 | [6] 0.025 | lapatinib 0.002 | pictilisib 0.093

From the supplement of paper PMC10849652
